Data reported in article PMC9420732.
These are yes or no findings as the source states them, for the method shown. In cells and extracts the contact can be indirect. A yes stands for co-enrichment or nearness to the bait. Other partners may have been found.

By UniProt entry, the sequences of proteins in these tests, tags left out. Residues count along the entry.
UniProt P05622, residues 32-1098: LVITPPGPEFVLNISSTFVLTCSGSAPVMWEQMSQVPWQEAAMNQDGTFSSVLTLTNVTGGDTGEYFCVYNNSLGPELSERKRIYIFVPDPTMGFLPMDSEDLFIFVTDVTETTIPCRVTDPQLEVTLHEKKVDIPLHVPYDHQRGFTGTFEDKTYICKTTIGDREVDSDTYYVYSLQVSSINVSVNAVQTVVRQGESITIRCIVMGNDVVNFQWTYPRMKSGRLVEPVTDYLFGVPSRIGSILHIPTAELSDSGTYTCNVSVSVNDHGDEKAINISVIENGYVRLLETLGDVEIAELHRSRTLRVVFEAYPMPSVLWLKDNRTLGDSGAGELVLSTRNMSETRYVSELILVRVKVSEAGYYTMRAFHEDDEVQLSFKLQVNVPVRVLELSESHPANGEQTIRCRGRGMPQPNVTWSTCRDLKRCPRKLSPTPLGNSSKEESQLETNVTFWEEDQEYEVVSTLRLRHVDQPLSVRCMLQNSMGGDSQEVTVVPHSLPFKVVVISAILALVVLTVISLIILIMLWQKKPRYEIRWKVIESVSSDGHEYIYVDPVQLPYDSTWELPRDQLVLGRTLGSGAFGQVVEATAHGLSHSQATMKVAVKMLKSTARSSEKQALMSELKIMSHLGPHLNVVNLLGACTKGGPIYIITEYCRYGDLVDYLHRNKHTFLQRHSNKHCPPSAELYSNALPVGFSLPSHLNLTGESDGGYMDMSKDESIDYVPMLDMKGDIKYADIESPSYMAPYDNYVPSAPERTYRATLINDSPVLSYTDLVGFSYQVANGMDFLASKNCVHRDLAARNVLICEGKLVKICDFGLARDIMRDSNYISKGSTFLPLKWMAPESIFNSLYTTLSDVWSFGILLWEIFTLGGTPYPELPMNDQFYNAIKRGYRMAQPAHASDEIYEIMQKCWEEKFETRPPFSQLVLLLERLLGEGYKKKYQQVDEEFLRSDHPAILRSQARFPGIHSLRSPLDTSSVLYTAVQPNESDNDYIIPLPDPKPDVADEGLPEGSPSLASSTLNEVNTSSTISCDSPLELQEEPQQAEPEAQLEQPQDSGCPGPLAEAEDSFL
UniProt P26039: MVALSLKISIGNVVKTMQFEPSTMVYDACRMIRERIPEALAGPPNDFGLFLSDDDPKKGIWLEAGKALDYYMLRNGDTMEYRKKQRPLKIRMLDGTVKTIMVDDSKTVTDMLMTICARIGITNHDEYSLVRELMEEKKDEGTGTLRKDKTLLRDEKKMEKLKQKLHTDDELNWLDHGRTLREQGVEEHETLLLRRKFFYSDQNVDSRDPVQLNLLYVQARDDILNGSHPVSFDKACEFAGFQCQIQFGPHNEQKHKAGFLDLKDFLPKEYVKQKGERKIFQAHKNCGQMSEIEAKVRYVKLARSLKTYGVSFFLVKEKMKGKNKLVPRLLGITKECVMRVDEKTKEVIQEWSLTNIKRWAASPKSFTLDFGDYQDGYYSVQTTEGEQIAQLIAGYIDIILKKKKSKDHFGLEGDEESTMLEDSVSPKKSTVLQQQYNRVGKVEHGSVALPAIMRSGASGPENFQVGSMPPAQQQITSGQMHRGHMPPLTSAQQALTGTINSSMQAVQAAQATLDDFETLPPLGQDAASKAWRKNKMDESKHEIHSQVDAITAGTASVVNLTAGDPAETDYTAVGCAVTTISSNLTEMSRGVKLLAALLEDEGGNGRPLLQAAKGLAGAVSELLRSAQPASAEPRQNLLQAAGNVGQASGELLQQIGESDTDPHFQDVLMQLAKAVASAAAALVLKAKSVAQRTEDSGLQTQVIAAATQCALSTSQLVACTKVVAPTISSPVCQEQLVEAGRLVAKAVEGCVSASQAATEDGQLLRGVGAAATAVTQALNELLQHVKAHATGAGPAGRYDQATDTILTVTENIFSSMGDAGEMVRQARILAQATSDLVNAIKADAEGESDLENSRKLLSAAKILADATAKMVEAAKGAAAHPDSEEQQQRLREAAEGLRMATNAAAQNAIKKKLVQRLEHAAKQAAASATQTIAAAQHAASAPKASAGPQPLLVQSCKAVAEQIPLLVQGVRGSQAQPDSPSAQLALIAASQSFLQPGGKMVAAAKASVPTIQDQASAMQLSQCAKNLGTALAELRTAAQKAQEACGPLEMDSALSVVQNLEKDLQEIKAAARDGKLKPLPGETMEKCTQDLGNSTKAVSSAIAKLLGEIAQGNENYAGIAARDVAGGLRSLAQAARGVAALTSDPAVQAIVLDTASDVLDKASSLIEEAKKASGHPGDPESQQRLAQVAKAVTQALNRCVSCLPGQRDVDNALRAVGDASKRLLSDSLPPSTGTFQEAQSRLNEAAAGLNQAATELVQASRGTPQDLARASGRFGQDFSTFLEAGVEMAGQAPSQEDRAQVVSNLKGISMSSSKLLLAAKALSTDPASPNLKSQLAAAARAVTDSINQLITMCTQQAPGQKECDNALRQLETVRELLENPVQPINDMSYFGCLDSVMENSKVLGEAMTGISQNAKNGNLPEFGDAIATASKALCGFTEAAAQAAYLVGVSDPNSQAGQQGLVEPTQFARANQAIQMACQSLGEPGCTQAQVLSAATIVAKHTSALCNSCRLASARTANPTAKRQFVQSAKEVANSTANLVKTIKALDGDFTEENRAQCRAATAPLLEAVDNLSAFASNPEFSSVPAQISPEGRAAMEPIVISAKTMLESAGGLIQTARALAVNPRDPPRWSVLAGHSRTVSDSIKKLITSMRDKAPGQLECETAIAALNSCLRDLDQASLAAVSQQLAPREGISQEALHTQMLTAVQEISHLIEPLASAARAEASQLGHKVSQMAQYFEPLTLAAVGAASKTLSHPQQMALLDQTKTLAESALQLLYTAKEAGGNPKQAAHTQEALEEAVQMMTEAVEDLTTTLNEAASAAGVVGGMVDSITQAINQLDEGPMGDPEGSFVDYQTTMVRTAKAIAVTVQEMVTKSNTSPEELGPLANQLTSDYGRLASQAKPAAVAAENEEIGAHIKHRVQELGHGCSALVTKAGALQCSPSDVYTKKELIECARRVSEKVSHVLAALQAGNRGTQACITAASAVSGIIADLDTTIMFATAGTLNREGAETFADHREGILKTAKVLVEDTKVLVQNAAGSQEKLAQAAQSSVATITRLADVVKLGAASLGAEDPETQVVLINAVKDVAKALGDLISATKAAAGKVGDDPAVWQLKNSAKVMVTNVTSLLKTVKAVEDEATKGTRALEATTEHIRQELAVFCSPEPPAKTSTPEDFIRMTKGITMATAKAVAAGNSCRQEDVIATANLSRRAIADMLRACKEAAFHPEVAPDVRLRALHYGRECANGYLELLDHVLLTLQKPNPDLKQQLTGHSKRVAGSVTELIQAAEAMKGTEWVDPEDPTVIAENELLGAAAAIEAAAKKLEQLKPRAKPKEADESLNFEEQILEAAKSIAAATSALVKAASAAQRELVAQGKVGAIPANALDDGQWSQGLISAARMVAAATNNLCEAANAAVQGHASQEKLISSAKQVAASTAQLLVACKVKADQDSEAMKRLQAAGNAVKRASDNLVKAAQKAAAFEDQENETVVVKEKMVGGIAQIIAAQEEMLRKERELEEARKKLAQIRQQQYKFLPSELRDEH

Molecular target: platelet-derived growth factor receptor beta (PDGFR-β) (UniProt P05622)
Assay: affinity purification with mass spectrometry; total lysates of BMECs treated with PBS or PDGF-BB (300 ng/mL) for 24 h; immunoprecipitation with an antibody against PDGFR-β, then LC-MS/MS

talin1 (from UniProt P26039 1-2541)
binding: binds
